The values below come from PMC9016894, “MdMYB10 affects nitrogen uptake and reallocation by regulating the nitrate transporter MdNRT2.4-1 in red-fleshed apple”.

The exact form of at least one protein or probe is not confirmed. For some of these results: A negative result means that nothing was seen under these conditions. At least one verdict rests on a figure or table, not on a statement of the authors. Tags and fusion partners may be left off the protein sequences shown.

Experiment in all cases: EMSA
In general terms: Mobility shift assays separate free from complexed probe on a gel.

Data set [1] addresses T1, MdMYB10-HIS (also printed MdMYB1-HIS) (UniProt E2RZU2).
T1 sequence (looked up, limits assumed): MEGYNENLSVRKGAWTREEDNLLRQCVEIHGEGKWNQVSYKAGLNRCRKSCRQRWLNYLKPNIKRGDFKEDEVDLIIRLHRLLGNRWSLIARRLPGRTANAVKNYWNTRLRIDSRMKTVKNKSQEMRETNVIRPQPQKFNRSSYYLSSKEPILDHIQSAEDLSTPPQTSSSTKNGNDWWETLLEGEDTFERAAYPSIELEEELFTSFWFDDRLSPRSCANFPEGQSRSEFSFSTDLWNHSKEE
The following applies: not stated (EMSA as described by Xie et al. [40]); recombinant protein; protein details: His (pET32a).

The next data set concerns the target T2, AtPAP1-HIS (Arabidopsis) (UniProt Q9FE25).
T2 sequence (looked up, limits assumed): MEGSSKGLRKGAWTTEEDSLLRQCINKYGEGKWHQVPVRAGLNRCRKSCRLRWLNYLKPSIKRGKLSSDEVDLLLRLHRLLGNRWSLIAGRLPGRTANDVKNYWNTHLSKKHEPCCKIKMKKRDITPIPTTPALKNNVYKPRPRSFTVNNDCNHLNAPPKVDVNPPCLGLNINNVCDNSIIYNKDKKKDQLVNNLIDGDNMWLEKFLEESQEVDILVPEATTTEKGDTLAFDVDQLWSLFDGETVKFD
The following applies: not stated (EMSA as described by Xie et al. [40]); recombinant protein; protein details: His.

The next data set concerns the target T3, AtPAP2-HIS (Arabidopsis) (UniProt Q9ZTC3).
T3 sequence (looked up, limits assumed): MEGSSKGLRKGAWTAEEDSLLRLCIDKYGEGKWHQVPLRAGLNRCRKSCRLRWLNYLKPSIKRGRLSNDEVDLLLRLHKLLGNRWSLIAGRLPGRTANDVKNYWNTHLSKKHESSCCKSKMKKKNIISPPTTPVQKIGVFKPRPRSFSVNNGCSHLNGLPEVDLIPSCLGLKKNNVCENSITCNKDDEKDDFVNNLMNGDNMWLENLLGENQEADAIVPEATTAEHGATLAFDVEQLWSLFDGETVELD
The following applies: not stated (EMSA as described by Xie et al. [40]); recombinant protein; protein details: His.

For “ACCTCACCGACACAGACACCGGTCACGCAGGCACCGCTGCATTCC (double strand) [MdNRT2.5-2(MBS-1)]”, the binding result in data set [1] is listed as “no binding”.
Same read-out and setting: the value for “TGAAATTAAGAAAACAAGAGCAGTTGCAACCTTCCCAAAAGAAAAA (double strand) [MdNRT2.7-2(MBS-1)]” was “no binding”; that for “TGTGTGGATAACCGAATATATAACTGTGATGAGTACAAGCAAAAGA (double strand) [MdNRT2.7-2(MBS-2)]” was “no binding”.
“GGTTTTTATTTGTGAAGGTACAACTGTTATTGCTGTTACAATCTT (double strand) [AtNRT2.4(MBS-I)]”: the binding result with AtPAP1-HIS (Arabidopsis) and in the data set with AtPAP2-HIS (Arabidopsis) was “binds” each time.
As to “AAAATCAATCACGCTAAGATCAGTTGATAACGTACTTGAGTGGCC (double strand) [MdNRT2.5-2(MBS-2)]”, in data set [1], the binding result is recorded as “no binding”.
As to “AGAATAGACTTGATAACTCGCAGTTGATAATGCCTCATGGTACAA (double strand) [AtNRT2.4(MBS-III)]”, the binding result in the data set with AtPAP2-HIS (Arabidopsis) is “binds”.
